Among the data in the supplement of paper PMC6411743 are NP40-soluble protein abundance values, retold here.

The experiment deals with T1, UniProt Q9NSI8 and related entries.
T1 sequence (whole entry): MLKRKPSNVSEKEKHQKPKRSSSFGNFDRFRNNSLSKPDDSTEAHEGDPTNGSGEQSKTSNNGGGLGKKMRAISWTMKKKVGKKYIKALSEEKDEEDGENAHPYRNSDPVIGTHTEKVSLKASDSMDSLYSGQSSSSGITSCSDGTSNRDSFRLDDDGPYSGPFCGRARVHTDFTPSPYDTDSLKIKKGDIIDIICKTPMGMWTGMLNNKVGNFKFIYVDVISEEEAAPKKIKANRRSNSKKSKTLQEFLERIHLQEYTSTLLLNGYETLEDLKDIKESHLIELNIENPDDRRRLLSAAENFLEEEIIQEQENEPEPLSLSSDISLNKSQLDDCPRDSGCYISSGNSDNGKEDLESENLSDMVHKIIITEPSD
In words: NP40-soluble protein abundance relative to vehicle (solubility fold change) (ratio); higher = more soluble protein in presence of GTP. The procedure:
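Solubility proteome profiling in Jurkat crude lysate. Lysate was treated with Mg-GTP (0.1-10 mM) for 10 min at room temperature and 3 min at 37 °C, then solubilised with 0.8% NP40 and benzonase, followed by ultracentrifugation. Proteins were quantified by TMT10 LC-MS/MS; the value is the NP40-soluble abundance relative to the NP40-processed vehicle, from 3 independent experiments.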

± gives the standard deviation of the averaged measurements. The list shows a part of the results.

Turning to `Nc1nc2c(ncn2[C@@H]2O[C@H](COP(=O)(O)OP(=O)(O)OP(=O)(O)O)[C@@H](O)[C@H]2O)c(=O)[nH]1` [guanosine triphosphate], the NP40-soluble protein abundance reads like this: (concentration: 0.1mM) 0.968 ± 0.085; (concentration: 0.5mM) 0.961 ± 0.12; (concentration: 1mM) 0.977 ± 0.13; (concentration: 2mM) 0.924 ± 0.14; (concentration: 4mM) 0.932 ± 0.13; (concentration: 6mM) 0.93 ± 0.15. In addition, the NP40-soluble protein abundance was 0.891 ± 0.1 (concentration: 8mM) and 0.915 ± 0.16 (concentration: 10mM).
